Data as given in PubChem BioAssay AID1259405 (NCATS, 2018).
The deposit covers about 50,000 reagents; this is an unselected part. Of all reagents, about 4,000 (8%) are marked active. 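Mouse siRNA library applied to hamster cells; one well for each siRNA.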 The numbers tell different reagents against one gene apart.

Test: 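Mouse-designed siRNAs used to find CHO productivity engineering targets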 (primary screen)
System: Chinese hamster CHO-K1 ovary cells with stable secreted eGFP expression
Reagents: single siRNA against mouse genes, 0.8 pmol siRNA per well (2 µl of 400 nM stock)
Duration: 3 days
Read-out: 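Per-well intracellular GFP measured by laser scanning cytometry, plus viability from ATP luminescence, each relative to plate median of non-targeting control wells, in %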
Reading the numbers: GFP, % of control: higher = more GFP per well, higher productivity; viability (ATP), % of control: higher = more viable cells (more ATP)
Call rule: 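Called active when intracellular GFP, relative to negative control, is at or above 120%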

{"gene": "Arl13b (ADP-ribosylation factor-like 13B)", "reagent": 1, "GFP, % of control": 124, "viability (ATP), % of control": 105, "call": "active"}
{"gene": "Arl13b (ADP-ribosylation factor-like 13B)", "reagent": 2, "GFP, % of control": 44, "viability (ATP), % of control": 48, "call": "inactive"}
{"gene": "Arl13b (ADP-ribosylation factor-like 13B)", "reagent": 3, "GFP, % of control": 112, "viability (ATP), % of control": 105, "call": "inactive"}
{"gene": "Scx (scleraxis scleraxis bHLH transcription factor)", "reagent": 1, "GFP, % of control": 67.1, "viability (ATP), % of control": 74.2, "call": "inactive"}
{"gene": "Scx (scleraxis scleraxis bHLH transcription factor)", "reagent": 2, "GFP, % of control": 67.9, "viability (ATP), % of control": 65.5, "call": "inactive"}
{"gene": "Scx (scleraxis scleraxis bHLH transcription factor)", "reagent": 3, "GFP, % of control": 58.2, "viability (ATP), % of control": 65, "call": "inactive"}
{"gene": "Dhrs13 (dehydrogenase/reductase 13)", "reagent": 1, "GFP, % of control": 39.7, "viability (ATP), % of control": 55.3, "call": "inactive"}
{"gene": "Dhrs13 (dehydrogenase/reductase 13)", "reagent": 2, "GFP, % of control": 92.5, "viability (ATP), % of control": 73.7, "call": "inactive"}
{"gene": "Dhrs13 (dehydrogenase/reductase 13)", "reagent": 3, "GFP, % of control": 122, "viability (ATP), % of control": 96, "call": "active"}
{"gene": "Dynlt2b (dynein light chain Tctex-type 2B)", "reagent": 1, "GFP, % of control": 42.8, "viability (ATP), % of control": 59.9, "call": "inactive"}
{"gene": "Dynlt2b (dynein light chain Tctex-type 2B)", "reagent": 2, "GFP, % of control": 59.8, "viability (ATP), % of control": 78.6, "call": "inactive"}
{"gene": "Dynlt2b (dynein light chain Tctex-type 2B)", "reagent": 3, "GFP, % of control": 50.7, "viability (ATP), % of control": 50.9, "call": "inactive"}
{"gene": "Pwp1 (PWP1 homolog, endonuclein)", "reagent": 1, "GFP, % of control": 80.3, "viability (ATP), % of control": 59.7, "call": "inactive"}
{"gene": "Pwp1 (PWP1 homolog, endonuclein)", "reagent": 2, "GFP, % of control": 104, "viability (ATP), % of control": 58.3, "call": "inactive"}
{"gene": "Pwp1 (PWP1 homolog, endonuclein)", "reagent": 3, "GFP, % of control": 59.6, "viability (ATP), % of control": 78.5, "call": "inactive"}

Next part (3 carried over from the part before).
{"gene": "Pwp1 (PWP1 homolog, endonuclein)", "reagent": 1, "GFP, % of control": 80.3, "viability (ATP), % of control": 59.7, "call": "inactive"}
{"gene": "Pwp1 (PWP1 homolog, endonuclein)", "reagent": 2, "GFP, % of control": 104, "viability (ATP), % of control": 58.3, "call": "inactive"}
{"gene": "Pwp1 (PWP1 homolog, endonuclein)", "reagent": 3, "GFP, % of control": 59.6, "viability (ATP), % of control": 78.5, "call": "inactive"}
{"gene": "Gckr (glucokinase regulatory protein)", "reagent": 1, "GFP, % of control": 113, "viability (ATP), % of control": 93, "call": "inactive"}
{"gene": "Gckr (glucokinase regulatory protein)", "reagent": 2, "GFP, % of control": 324, "viability (ATP), % of control": 83.3, "call": "active"}
{"gene": "Gckr (glucokinase regulatory protein)", "reagent": 3, "GFP, % of control": 122, "viability (ATP), % of control": 97.7, "call": "active"}
{"gene": "Gckr (glucokinase regulatory protein)", "reagent": 4, "GFP, % of control": 85.7, "viability (ATP), % of control": 77.6, "call": "inactive"}
{"gene": "Gckr (glucokinase regulatory protein)", "reagent": 5, "GFP, % of control": 324, "viability (ATP), % of control": 83.3, "call": "active"}
{"gene": "Crocc (ciliary rootlet coiled-coil, rootletin)", "reagent": 1, "GFP, % of control": 42.6, "viability (ATP), % of control": 21.3, "call": "inactive"}
{"gene": "Crocc (ciliary rootlet coiled-coil, rootletin)", "reagent": 2, "GFP, % of control": 71.8, "viability (ATP), % of control": 28.3, "call": "inactive"}
{"gene": "Crocc (ciliary rootlet coiled-coil, rootletin)", "reagent": 3, "GFP, % of control": 125, "viability (ATP), % of control": 90.3, "call": "active"}
{"gene": "Xcl1 (chemokine (C motif) ligand 1)", "reagent": 1, "GFP, % of control": 99.2, "viability (ATP), % of control": 26.4, "call": "inactive"}
{"gene": "Xcl1 (chemokine (C motif) ligand 1)", "reagent": 2, "GFP, % of control": 42.4, "viability (ATP), % of control": 24.4, "call": "inactive"}
{"gene": "Xcl1 (chemokine (C motif) ligand 1)", "reagent": 3, "GFP, % of control": 86, "viability (ATP), % of control": 63.3, "call": "inactive"}
{"gene": "Pvalb (parvalbumin)", "reagent": 1, "GFP, % of control": 66, "viability (ATP), % of control": 71.9, "call": "inactive"}
{"gene": "Pvalb (parvalbumin)", "reagent": 2, "GFP, % of control": 73.2, "viability (ATP), % of control": 71.1, "call": "inactive"}
{"gene": "Cadm3 (cell adhesion molecule 3)", "reagent": 1, "GFP, % of control": 110, "viability (ATP), % of control": 46, "call": "inactive"}
{"gene": "Cadm3 (cell adhesion molecule 3)", "reagent": 2, "GFP, % of control": 58.3, "viability (ATP), % of control": 60.5, "call": "inactive"}
{"gene": "Cadm3 (cell adhesion molecule 3)", "reagent": 3, "GFP, % of control": 89.8, "viability (ATP), % of control": 78.5, "call": "inactive"}
{"gene": "Pex14 (peroxisomal biogenesis factor 14)", "reagent": 1, "GFP, % of control": 93.2, "viability (ATP), % of control": 132, "call": "inactive"}
{"gene": "Pex14 (peroxisomal biogenesis factor 14)", "reagent": 2, "GFP, % of control": 93.6, "viability (ATP), % of control": 64.3, "call": "inactive"}
{"gene": "Peg3 (paternally expressed 3)", "reagent": 1, "GFP, % of control": 31.4, "viability (ATP), % of control": 52.4, "call": "inactive"}
{"gene": "Peg3 (paternally expressed 3)", "reagent": 2, "GFP, % of control": 79.4, "viability (ATP), % of control": 85.3, "call": "inactive"}
{"gene": "Peg3 (paternally expressed 3)", "reagent": 3, "GFP, % of control": 59.9, "viability (ATP), % of control": 75.8, "call": "inactive"}
{"gene": "Zfp750 (zinc finger protein 750)", "reagent": 1, "GFP, % of control": 60.7, "viability (ATP), % of control": 71.5, "call": "inactive"}
{"gene": "Zfp750 (zinc finger protein 750)", "reagent": 2, "GFP, % of control": 35.9, "viability (ATP), % of control": 24.8, "call": "inactive"}
{"gene": "Zfp750 (zinc finger protein 750)", "reagent": 3, "GFP, % of control": 88.1, "viability (ATP), % of control": 78.9, "call": "inactive"}
{"gene": "Mrpl16 (mitochondrial ribosomal protein L16)", "reagent": 1, "GFP, % of control": 59.5, "viability (ATP), % of control": 77.4, "call": "inactive"}
{"gene": "Mrpl16 (mitochondrial ribosomal protein L16)", "reagent": 2, "GFP, % of control": 85.5, "viability (ATP), % of control": 74.3, "call": "inactive"}
{"gene": "Mrpl16 (mitochondrial ribosomal protein L16)", "reagent": 3, "GFP, % of control": 98.4, "viability (ATP), % of control": 75.3, "call": "inactive"}
